Source: PubChem BioAssay AID2517 (National Center for Advancing Translational Sciences (NCATS), 2010)
“And” between values parts separate entries of the source, which are not always exact repeats. Equal values may be shown once. Hit rate of the full screen: of about 350,000 compounds, about 1,200 (0.34%) were called active. The inconclusive results got no clear call from the source; some entries with a clear call stand among them for comparison. Calls come from the whole dose curve; as a rule, active = well fitted inhibition curve with a large enough effect; inconclusive = small, poorly fitted or top-dose-only effect; inactive = no such curve, though single readings can be large or run the other way. Where the call is inconclusive, the potency comes from a doubtful curve fit.

Protein sequences, listed by entry. Tags and fused reporters are not part of them.
UniProt P27695, whole entry, looked up: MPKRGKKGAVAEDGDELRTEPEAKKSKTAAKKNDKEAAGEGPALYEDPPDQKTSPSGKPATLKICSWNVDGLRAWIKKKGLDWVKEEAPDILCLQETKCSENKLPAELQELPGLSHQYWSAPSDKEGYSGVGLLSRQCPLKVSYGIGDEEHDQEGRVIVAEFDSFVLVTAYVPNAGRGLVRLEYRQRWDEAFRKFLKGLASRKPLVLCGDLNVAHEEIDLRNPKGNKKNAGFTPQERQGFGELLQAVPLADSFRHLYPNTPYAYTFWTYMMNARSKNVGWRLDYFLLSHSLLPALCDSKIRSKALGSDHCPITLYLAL

molecular target: DNA repair nuclease/redox regulator APEX1 (Homo sapiens) (UniProt P27695); assay: qHTS Assay for Inhibitors of the Human Apurinic/apyrimidinic Endonuclease 1 (APE1); conditions: recombinant APE1, TAMRA/BHQ-2 abasic DNA cleavage fluorescence; series mostly up to 65.8 µM; note: nearly all actives have a fitted effect of over 55% in size
Procedure, shortened: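 Substrate: short duplex with […] THF abasic site, 5'-TAMRA and 3'-BHQ-2, 50 nM final. APE1 at 0.75 nM, preincubated 15 min RT with compound. Fluorescence increase from first to third read measured activity.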
Potency is the fitted concentration of half-maximal effect.

| SMILES | Potency |
| --- | --- |
| CCCOc1ccccc1Nc1nnc(C)c(=O)[nH]1 | inconclusive: 44.7 µM [inhibitor, single point] |
| COc1ccccc1-c1ccc(SCC(=O)NC2CCCC2)nn1 | inactive |
| CC1=C(C#N)c2nc(N)c(C#N)c(C)c2/C1=C\c1ccc(C)cc1 | inconclusive: 31.6 µM [inhibitor, partial curve, poor fit] |
| CCOC(=O)C1CCCN(S(=O)(=O)c2ccc(Br)s2)C1 (stereo not drawn) | inconclusive: 25.1 µM [inhibitor, partial curve, poor fit] |
| Cc1ccc(C(=O)OCC(=O)NCc2ccco2)cc1 | inconclusive: 44.7 µM [inhibitor, single point] |
| O=[N+]([O-])c1ccc(/C([O-])=C(/C(=S)NCc2ccco2)[n+]2ccccc2)cc1 | active: 8.91 µM |
| CC(C)C(=O)n1nc(-c2cccnc2)nc1NCc1cccs1 | inconclusive: 5.01 µM [inhibitor, full curve, poor fit] |
| CC(=O)OCC(=O)[C@@]1(O)CC[C@H]2[C@@H]3C[C@H](C)C4=CC(=O)C=C[C@]4(C)[C@H]3[C@@H](O)C[C@@]21C | inconclusive: 22.4 µM [inhibitor, partial curve] |
| CCc1ccc(N2C(=O)CC(N3CCN(c4ccccn4)CC3)C2=O)cc1 (stereo not drawn) | inconclusive: 0.0032 µM [inhibitor, full curve, poor fit] |
| CCOP(=O)(OCC)c1nc(Cc2ccccc2)oc1NCc1ccccc1 | inconclusive: 44.7 µM [inhibitor, single point] |
| CCc1nn(-c2cc(Cl)ccc2OC)c2c1C(=O)CCC2 | inconclusive: 44.7 µM [inhibitor, single point] |
| CNc1cccccc1=S | inconclusive: 3.55 µM [inhibitor, full curve] |
| NS(=O)(=O)c1ccc(-n2ncc3c(=O)[nH]c(SCC(=O)Nc4nccs4)nc32)cc1 | inconclusive: 8.91 µM [inhibitor, single point] |
| O=C1NC(=Nc2ccc(O)cc2)S/C1=C/c1ccco1 | inconclusive: 25.1 µM [inhibitor, single point] |
| Cc1nc(N=C(N)N)nc2c(C)cccc12 | inconclusive: 15.8 µM [inhibitor, single point] |
| COc1ccc(/C=N/NC(=O)c2[nH]nc3c2CCc2ccccc2-3)cc1OC | inactive |
| CC(Cc1ccccc1)C(=O)Nc1ccccc1 (stereo not drawn) | inconclusive: 7.08 µM [inhibitor, single point] |
| CC1CCCC(C)N1C(=O)COC(=O)c1ccc(Br)o1 (stereo not drawn) | inactive |
| O=C(CN1CCN(c2ccccc2F)CC1)NC(=O)NCc1ccco1 | inconclusive: 20 µM [inhibitor, partial curve] |
| CC(=O)OCON[N+]([O-])=NC(C)C | inactive |
| CCOC(=O)c1c(C)nc(C)c(C(=O)OCC)c1-c1ccco1 | inconclusive: 28.2 µM [inhibitor, single point] |
| Cc1noc(C)c1-c1nccc(NCc2cccs2)n1 | inconclusive: 39.8 µM [inhibitor, single point] |
| CCCCC/C=C\C\C=C/C=C/C=C/[C@@H](SC[C@H](NC(=O)CC[C@H](N)C(=O)O)C(=O)NCC(=O)O)[C@@H](O)CCCC(=O)O | inactive |

| SMILES | Potency |
| --- | --- |
| Cc1ccccc1-c1nc2c(s1)CCc1onc(-c3cccc([N+](=O)[O-])c3)c1-2 | inactive |
| O=C(CN1CCC(C(=O)O)CC1)Nc1ccccc1Oc1ccccc1 | inconclusive: 11.2 µM [inhibitor, partial curve, poor fit] |
| Cc1ccc(NC(=S)NC(=O)/C=C/c2ccco2)c(O)c1 | inconclusive: 25.1 µM [inhibitor, single point] |
| O=C(CSCCO)Nc1nccs1 | inconclusive: 35.5 µM [inhibitor, single point] |
| COC(=O)c1ccc(C)c(NC(=O)CCc2ccc(OC)c(OC)c2)c1 | inactive |
| O=C(COC(=O)c1cccs1)Nc1ccccc1[N+](=O)[O-] | inconclusive: 28.2 µM [inhibitor, single point] |
| Cc1cc(C(=O)OCC(=O)NC(C)C)c2ccccc2n1 | inconclusive: 0.398 µM [inhibitor, full curve] |
| O=C(Cn1c(O)c(/C=C2\C=Nc3ccc(Br)cc32)sc1=O)N1CCCC1 | inconclusive: 3.16 µM [inhibitor, single point] |
| CC(=O)N(/N=C1\Sc2ccccc2C1=O)c1cccc(C)c1 | inactive |
| N#Cc1nc(-c2ccccc2F)oc1NCc1ccccc1 | inconclusive: 31.6 µM [inhibitor, single point] |
| O=C1CCC(C(=O)Nc2cccc(C(F)(F)F)c2)N1 (stereo not drawn) | inconclusive: 44.7 µM [inhibitor, single point] |
| CC(=O)c1cccc(CN2CCCC(C(=O)c3ccc4c(c3)OCO4)C2)c1 (stereo not drawn) | inconclusive: 0.0355 µM [inhibitor, full curve, poor fit] |
| O=S(=O)(O)c1nc2ccccc2n1CCOc1ccccc1 | inactive |
| CCCCCCCCCCCCCC[C@@H](O)[C@@H](O)[C@H](CO)NC(C)=O | inactive |
| COc1cccc(NS(=O)(=O)c2cc3c(cc2C)N(C(C)=O)CCO3)c1 | inactive |
| Cc1ccc(CCNC(=O)CC2Oc3ccc(C)cc3NC2=O)cc1 (stereo not drawn) | inconclusive: 50.1 µM [inhibitor, partial curve, poor fit] |
| CC(C)=CCC/C(C)=C/COc1c2occc2cc2ccc(=O)oc12 | inactive and inconclusive: 39.8 µM [inhibitor, single point] |
| COc1cc(/C=N/NC(=O)C(=O)NCc2ccco2)cc(Br)c1O | inconclusive: 25.1 µM [inhibitor, single point] |
| CN1C(=O)C(O)(C2COC(C)(C)CC2=O)c2cc(Br)ccc21 (stereo not drawn) | inactive |
| COC(=O)c1ccc(C(NC(=O)OCc2ccccc2)/C(=C/[C@@H](C)C(=O)NCc2ccc(-c3ccccc3)cc2)c2cccnc2)cc1 (stereo partly drawn) | inconclusive: 0.398 µM [inhibitor, full curve] |
| CCOc1ccc2c(c1)C(N(CCN1CCOCC1)C(=O)Nc1ccccc1)CC(C)(C)O2 (stereo not drawn) | inconclusive: 4.47 µM [inhibitor, single point] |
| CCn1cc(C(=O)O)c(=O)c2cc(F)c(N3CCN(C(=S)NC(=O)c4ccc(Br)cc4)CC3)cc21 | inconclusive: 1 µM [inhibitor, full curve, poor fit] |
| COc1ccc(NC(=O)CCc2nnc3ccc(NCc4ccc5c(c4)OCO5)nn23)cc1 | inactive |

| SMILES | Potency |
| --- | --- |
| CC(=O)Nc1ccn(C2OC(C(COC(C)=O)NC(=O)C(CCCCNC(=O)OCc3ccccc3)NC(=O)OC(C)(C)C)C(OC(C)=O)C2OC(C)=O)c(=O)n1 (stereo not drawn) | inconclusive: 44.7 µM [inhibitor, single point] |
| O=C(NCCc1c[nH]c2ccccc12)[C@@H]1C[C@H]1[C@@H](NP(=O)(c1ccccc1)c1ccccc1)c1ccccc1 | inconclusive: 2 µM [inhibitor, full curve, poor fit] and inconclusive: 3.98 µM [inhibitor, single point] |
| CC(C)c1ccccc1NC(=O)Cn1c(-c2ccccc2Cl)nc2ccccc21 | inconclusive: 0.0224 µM [inhibitor, full curve, poor fit] |
| CCn1c(=O)n(CC)c2cc(N3CCCC3)c(NC(=O)c3ccc(OC)c(Br)c3)cc21 | inconclusive: 7.52 µM [inhibitor, single point] |
| CC1(C)Cc2c(sc3[nH]c(=S)n(Cc4ccco4)c(=O)c23)CO1 | active: 35.5 µM |
| COc1ccccc1O | inactive |
| COCc1cc(C)nc(OCC(=O)N/N=C/c2ccccc2O)c1C#N | inactive |
| CCCCN=C(Nc1ccc(Cl)cc1)c1cccnc1 | inconclusive: 0.0251 µM [inhibitor, full curve, poor fit] |
| CN(C(=O)COC(=O)c1ccc(S(=O)(=O)N2CCOCC2)cc1)C1CCCCC1 | inconclusive: 0.224 µM [inhibitor, full curve] |
| O=C(Nc1ccc2nn(-c3ccccc3)nc2c1)c1ccc(Br)o1 | inactive |
| CC1(C)CN(c2ccc(Br)cc2Br)C1=O | inactive |
| CC[C@H](NC(C)C)[C@H](O)c1ccc(O)c2[nH]c(=O)ccc12 | inactive |
| CCN(C(=O)CN1CCN(c2ccc(O)cc2)CC1)c1c(N)n(Cc2ccccc2)c(=O)[nH]c1=O | inconclusive: 1.58 µM [inhibitor, full curve, poor fit] |
| COc1ccc(NC(=O)COC(=O)C2CCN(S(=O)(=O)c3cccs3)CC2)cc1 | inactive |
| CC(=O)NS(=O)(=O)c1ccc(NC(=O)/C=C/c2ccco2)cc1 | inconclusive: 35.5 µM [inhibitor, single point] |
| CCN(c1ccccc1)S(=O)(=O)c1ccc(Oc2ccc(-n3ccnc3)cc2)nc1 | inconclusive: 25.1 µM [inhibitor, partial curve, poor fit] |
| Cn1c(=O)c2c(nc(Cl)n2CCOc2ccccc2)n(C)c1=O | inactive |
| CCCCCCCCCC[N+](C)(C)CC/C=C1/c2ccccc2Sc2ccc(Cl)cc21 | inactive |
| COc1ccc(/C=N/NC(=O)c2[nH]c3ccc(Br)cc3c2-c2ccccc2)c(C(=O)O)c1OC | inactive |
| COc1ccccc1CNC(=O)Cn1ccsc1=N | inactive |
| O=C(CSc1nnnn1Cc1ccccc1)NCC(=O)c1ccccc1 | inconclusive: 1 µM [inhibitor, full curve, poor fit] |
| O=C(Nc1ccc(Cc2ccc(NC(=O)C3CC3)cc2)cc1)C1CC1 | inconclusive: 0.1 µM [inhibitor, full curve, poor fit] |
